# Measurements reported in PubChem BioAssay AID504444 (National Center for Advancing Translational Sciences (NCATS), 2011).
# The campaign covered roughly 360,000 compounds. About 7,500 (2.1%) were called active. Inconclusive means that the source gave no clear call. Such entries were picked first, then a sample of the others. Calls follow the shape of the dose curve; as a rule, active = well fitted inhibition curve with a large enough effect; inconclusive = small, poorly fitted or top-dose-only effect, or effect the other way; inactive = flat fitted curve, though single readings scatter. Potencies of inconclusive entries are doubtful fits and often do not repeat.
# Experiment: Nrf2 qHTS screen for inhibitors; also: nearly all actives have a fitted effect of over 60% in size
# Conditions: A549 ARE-Fluc reporter, luciferase luminescence, 18-24 h; activity change, negative = inhibition: at 46 µM (top of the series)
# Summary of the method: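 Nrf2 activity is the BugLite luminescence, read 15 min after reagent at room temperature, following CellTiter-Fluor cytotoxicity readout (30 min, 37C). Compound titrations were applied for 18-24 h to 5000 A549 ARE_Fluc cells/well in 5% FBS OPTI-MEM.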
# % is scaled to controls: 0 for no effect and ±100 for the full control effect; potency is read from the fitted curve at half-maximal effect.
Compound,Potency,"activity change, negative = inhibition"
O=c1c2cccnc2n(Cc2cccc(F)c2)c(=O)n1Cc1ccccc1Cl,"inconclusive: 29.1 µM [falling, partial curve, poor fit]",
CC1(C)CC(NC(=O)C2CCN(S(=O)(=O)c3ccc(Cl)c(C(F)(F)F)c3)CC2)CC(C)(C)N1,,inactive: 0.411%
Clc1cccc(Cl)c1/C=C/c1nc2ccccc2[nH]1,"inconclusive: 0.82 µM [activator, full curve]",
COc1ccc(CN2CCc3ccc(NC(=O)CCc4ccccc4OC)cc3C2)c(O)c1,"inconclusive: 20.6 µM [falling, single point]",
O=C(Cc1ccc(Cl)cc1Cl)Nc1ccncc1Cl,active: 9.2 µM,
CC(C)(C)C(=O)Nc1ccc2nc(SCC(=O)N3CCc4ccccc43)sc2c1,,inactive: 27.5%
Cc1ccc(S(=O)(=O)c2cn(CC(=O)Nc3ccc4c(c3)OCO4)c3ccccc3c2=O)cc1C,,inactive: -14.7%
COc1cc(/C=N/NC(=O)NC23CC4CC(CC(C4)C2)C3)ccc1OCC(N)=O,"inconclusive: 32.6 µM [falling, single point]",
CCOc1ccc(NC(=O)c2cc3cc4cc(OC)ccc4nc3s2)cc1,"inconclusive: 16.4 µM [falling, single point]",
COc1nccnc1NS(=O)(=O)c1ccc(NC(=O)c2cccc(C)c2)cc1,,inactive: -26.2%
CC1CC(C)CN(C(=O)COC(=O)c2ccc3ncsc3c2)C1 (configuration not stated),"inconclusive: 10.3 µM [activator, partial curve, poor fit]",
CS/C(N)=N/N=C/c1c(O)ccc2ccccc12,"inconclusive: 9.2 µM [activator, partial curve]",
O=C(Cc1ccc(NC(=O)C2CCCN(C(=O)CCc3ccccc3)C2)cc1)Nc1cccc(C(=O)N2CCCC2)c1 (configuration not stated),"inconclusive: 32.6 µM [falling, single point]",
O=c1[nH]c(=O)n(C2CC(O)C(CO)O2)cc1Br (configuration not stated),"inconclusive: 1.64 µM [falling, partial curve]",
COC(=O)N/N=C/c1ccc([N+](=O)[O-])o1,,inactive: 1.24%
COc1ccc2c(c1)CCC(C)N2C(=O)C(=O)c1c[nH]c2ccccc12 (configuration not stated),"inconclusive: 18.4 µM [falling, single point]",
Cc1cc(=O)n(C)c(=O)n1CCCNc1ccccc1,"inconclusive: 11.6 µM [falling, partial curve, poor fit]",
Cc1cccc2sc(NNC(=O)c3ccc(S(=O)(=O)N4CCc5ccccc5C4)cc3)nc12,"inconclusive: 4.61 µM [falling, full curve]",
Cc1cc2c(n1-c1ccc(C(=O)NCCc3ccccc3)cc1)CCC(C)C2 (configuration not stated),"inconclusive: 8.2 µM [activator, partial curve]",
CC(C)N1CCc2c(sc(NC(=O)c3cc4cc([N+](=O)[O-])ccc4s3)c2C(N)=O)C1,,inactive: -15%
O=C1c2ccccc2NC(c2ccc(-c3ccc(C(F)(F)F)cc3)o2)N1O (configuration not stated),"inconclusive: 32.6 µM [falling, partial curve, poor fit]",

# Full records, looked up by structure.
# `CS/C(N)=N/N=C/c1c(O)ccc2ccccc12` reads Potency: inconclusive: 9.2 µM [activator, partial curve]
# `CC1(C)CC(NC(=O)C2CCN(S(=O)(=O)c3ccc(Cl)c(C(F)(F)F)c3)CC2)CC(C)(C)N1` reads activity change, negative = inhibition: inactive: 0.411%
# `CCOc1ccc(NC(=O)c2cc3cc4cc(OC)ccc4nc3s2)cc1` reads Potency: inconclusive: 16.4 µM [falling, single point]

# The list goes on:

Compound,Potency,"activity change, negative = inhibition"
CC(/C=N/NC(=O)CSc1nnc(SCc2ccccc2)s1)=C\c1ccco1,,inactive: 1.27%
COc1cc(C)ccc1OCc1cc(C(=O)NCc2ccncc2)no1,"inconclusive: 8.2 µM [activator, partial curve]",
O=C(NCCCO)c1cc2c(cn1)[nH]c1ccccc12,"inconclusive: 10.3 µM [activator, partial curve, poor fit]",
Cc1ccc(C2CC(=O)Nc3cc4c(cc32)OCO4)o1 (configuration not stated),"inconclusive: 6.51 µM [activator, single point]",
C/C(N)=C(/C#N)C(=O)COC(=O)c1ccccc1C(=O)c1ccc(C)cc1,"inconclusive: 32.6 µM [activator, partial curve, poor fit]",
CCOC(=O)Cc1csc(NC(=O)c2ccc(Cl)nc2)n1,"inconclusive: 14.6 µM [falling, partial curve, poor fit]",
O=C(COc1ccc(/C=N/NC(=O)C(=O)N2CCCCC2)cc1)Nc1ccccc1Cl,"inconclusive: 1.84 µM [falling, full curve, poor fit]",
O=c1/c(=C/c2ccccn2)sc2nc3ccccc3n12,"inconclusive: 20.6 µM [activator, partial curve]",
Cc1ccc(S(=O)(=O)/N=C(/c2ccccc2)N(C)c2ccc(O)cc2)cc1,,inactive: 23.2%
COC(=O)C1=C[C@@H](C(=O)OC)C2C3=C(C(=O)[C@]2(CC(C)C)NC(=O)c2ccccc2)[C@H](C)n2c(=O)n(C)c(=O)n2[C@@H]3C1 (some centres not stated),,inactive: 5.52%
CCCOC(=O)c1cc2ccccc2oc1=O,,inactive: -4.8%
CCc1ccc(CN(C)C(=O)CCc2nnc(-c3ccc(-c4ccccc4)cc3)o2)nc1,active: 18.4 µM,
C[C@H](CO)N1C[C@H](C)[C@@H](CN(C)S(=O)(=O)c2ccc(F)cc2)Oc2c(NC(=O)Cc3ccccc3)cccc2C1=O,"inconclusive: 23.1 µM [activator, single point]",
C=C1C(=O)OC2CC1C(O)CC(C)=CCCC(C)=CC(O)CC2C (configuration not stated),active: 9.2 µM,
COc1ccccc1NS(=O)(=O)c1cccc(C(=O)N/N=C(/C)c2ccc(-n3ccnc3)cc2)c1,"inconclusive: 16.4 µM [falling, single point]",
CC(C)c1cc(-c2nc(-c3ccc(Br)cc3)no2)n[nH]1,"inconclusive: 4.61 µM [falling, full curve, poor fit]",
Cc1ncc(CO)c(CNc2ccc(-c3nc4ccccc4[nH]3)cc2)c1O,"inconclusive: 18.4 µM [activator, partial curve]",
Cc1cc2c(n1-c1ccc(C(=O)NCc3ccc(OC(C)C)cc3)cc1)CCCC2,"inconclusive: 20.6 µM [activator, single point]",
NC(=O)c1ccc(NC(=O)CCc2nc3ccccc3s2)cc1,,inactive: 19.3%
CC(=O)OC1CCC2C3CCc4cc(O)ccc4C3CCC12C (configuration not stated),"inconclusive: 23.1 µM [falling, single point]",
Cc1cc(-c2ccc(N3CCOCC3)cc2)nc2ccccc12,"inconclusive: 10.3 µM [activator, partial curve, poor fit]",
